Results are given in words; binding and its absence hold for the method and conditions named. For some assays here: In cells and extracts the contact can be indirect. Some entries that bind do so weakly or less than the wild type. Tags and fused reporters may be left off the sequences shown.
Legend:
[1] = biological target: T1, full-length SEC–HA (35S::SEC–3xHA) (Arabidopsis thaliana) (UniProt Q9M8Y0); experiment: co-IP; N. benthamiana leaves co-infiltrated with 35S::SPT–3xFLAG and 35S::SEC–3xHA or 35S::SPY–3xHA (with P19), 48 h; total protein extract immunoprecipitated with anti-HA magnetic beads; blots with anti-HA and anti-FLAG
T1 sequence: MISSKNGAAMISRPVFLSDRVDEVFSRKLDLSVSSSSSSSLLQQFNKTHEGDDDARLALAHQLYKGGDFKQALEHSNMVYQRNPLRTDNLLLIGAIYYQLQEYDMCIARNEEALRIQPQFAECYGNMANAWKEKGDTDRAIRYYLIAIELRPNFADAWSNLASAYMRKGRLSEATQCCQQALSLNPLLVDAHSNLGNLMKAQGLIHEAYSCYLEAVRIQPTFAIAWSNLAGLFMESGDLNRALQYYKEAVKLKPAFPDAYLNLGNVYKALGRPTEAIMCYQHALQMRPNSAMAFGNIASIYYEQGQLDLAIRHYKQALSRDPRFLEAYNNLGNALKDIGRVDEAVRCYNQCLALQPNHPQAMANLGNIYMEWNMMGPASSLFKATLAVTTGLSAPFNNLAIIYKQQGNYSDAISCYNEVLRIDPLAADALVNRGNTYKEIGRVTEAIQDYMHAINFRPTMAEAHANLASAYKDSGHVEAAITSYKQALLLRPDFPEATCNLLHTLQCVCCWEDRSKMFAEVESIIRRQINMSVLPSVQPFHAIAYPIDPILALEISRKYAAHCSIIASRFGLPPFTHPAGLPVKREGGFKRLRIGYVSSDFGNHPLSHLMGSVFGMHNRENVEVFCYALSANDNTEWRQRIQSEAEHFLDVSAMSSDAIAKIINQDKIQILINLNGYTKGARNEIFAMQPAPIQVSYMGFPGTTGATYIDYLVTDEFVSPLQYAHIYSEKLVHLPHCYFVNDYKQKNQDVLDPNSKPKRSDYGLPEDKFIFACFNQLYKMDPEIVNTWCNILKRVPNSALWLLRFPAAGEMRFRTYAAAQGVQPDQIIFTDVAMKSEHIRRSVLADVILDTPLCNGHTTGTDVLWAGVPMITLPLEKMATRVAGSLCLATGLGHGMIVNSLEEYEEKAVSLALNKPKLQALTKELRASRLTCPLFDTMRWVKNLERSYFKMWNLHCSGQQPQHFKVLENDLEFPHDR

[2] = biological target: T2, full-length SPY–HA (35S::SPY–3xHA) (Arabidopsis thaliana) (UniProt Q96301); experiment: as above
T2 sequence: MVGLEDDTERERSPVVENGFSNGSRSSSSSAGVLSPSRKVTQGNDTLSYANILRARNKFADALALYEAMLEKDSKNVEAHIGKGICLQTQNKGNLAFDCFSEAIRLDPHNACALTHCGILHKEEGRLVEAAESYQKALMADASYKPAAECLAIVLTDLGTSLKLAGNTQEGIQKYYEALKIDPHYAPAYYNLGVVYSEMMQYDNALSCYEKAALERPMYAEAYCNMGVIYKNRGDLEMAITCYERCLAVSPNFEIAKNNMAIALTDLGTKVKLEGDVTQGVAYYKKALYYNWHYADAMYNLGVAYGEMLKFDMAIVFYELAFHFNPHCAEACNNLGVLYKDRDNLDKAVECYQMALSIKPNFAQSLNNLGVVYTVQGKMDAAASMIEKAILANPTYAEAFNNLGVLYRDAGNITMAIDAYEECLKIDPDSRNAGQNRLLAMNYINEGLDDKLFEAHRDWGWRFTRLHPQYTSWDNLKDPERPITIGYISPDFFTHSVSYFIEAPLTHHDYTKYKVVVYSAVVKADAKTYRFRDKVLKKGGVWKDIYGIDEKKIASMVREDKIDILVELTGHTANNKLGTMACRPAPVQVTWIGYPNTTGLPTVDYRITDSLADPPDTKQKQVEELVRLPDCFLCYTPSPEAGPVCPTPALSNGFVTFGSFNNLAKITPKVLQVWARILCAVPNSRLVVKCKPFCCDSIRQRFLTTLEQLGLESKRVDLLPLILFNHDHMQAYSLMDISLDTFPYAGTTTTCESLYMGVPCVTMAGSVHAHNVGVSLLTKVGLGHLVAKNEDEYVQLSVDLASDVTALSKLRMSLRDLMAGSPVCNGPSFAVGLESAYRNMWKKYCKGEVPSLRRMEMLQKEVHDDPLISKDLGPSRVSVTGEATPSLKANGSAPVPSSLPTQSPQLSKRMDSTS

[3] = biological target: T3, SPY full length, yeast two-hybrid bait (BD) (Arabidopsis thaliana) (UniProt Q96301); experiment: two-hybrid; yeast AH109; SEC and SPY as bait (BD), SPT as prey (AD); growth on SD/−Ade/−His/−Leu/−Trp and with 2.5 mM 3-AT, serial dilutions, five days at 28 °C
T3 sequence: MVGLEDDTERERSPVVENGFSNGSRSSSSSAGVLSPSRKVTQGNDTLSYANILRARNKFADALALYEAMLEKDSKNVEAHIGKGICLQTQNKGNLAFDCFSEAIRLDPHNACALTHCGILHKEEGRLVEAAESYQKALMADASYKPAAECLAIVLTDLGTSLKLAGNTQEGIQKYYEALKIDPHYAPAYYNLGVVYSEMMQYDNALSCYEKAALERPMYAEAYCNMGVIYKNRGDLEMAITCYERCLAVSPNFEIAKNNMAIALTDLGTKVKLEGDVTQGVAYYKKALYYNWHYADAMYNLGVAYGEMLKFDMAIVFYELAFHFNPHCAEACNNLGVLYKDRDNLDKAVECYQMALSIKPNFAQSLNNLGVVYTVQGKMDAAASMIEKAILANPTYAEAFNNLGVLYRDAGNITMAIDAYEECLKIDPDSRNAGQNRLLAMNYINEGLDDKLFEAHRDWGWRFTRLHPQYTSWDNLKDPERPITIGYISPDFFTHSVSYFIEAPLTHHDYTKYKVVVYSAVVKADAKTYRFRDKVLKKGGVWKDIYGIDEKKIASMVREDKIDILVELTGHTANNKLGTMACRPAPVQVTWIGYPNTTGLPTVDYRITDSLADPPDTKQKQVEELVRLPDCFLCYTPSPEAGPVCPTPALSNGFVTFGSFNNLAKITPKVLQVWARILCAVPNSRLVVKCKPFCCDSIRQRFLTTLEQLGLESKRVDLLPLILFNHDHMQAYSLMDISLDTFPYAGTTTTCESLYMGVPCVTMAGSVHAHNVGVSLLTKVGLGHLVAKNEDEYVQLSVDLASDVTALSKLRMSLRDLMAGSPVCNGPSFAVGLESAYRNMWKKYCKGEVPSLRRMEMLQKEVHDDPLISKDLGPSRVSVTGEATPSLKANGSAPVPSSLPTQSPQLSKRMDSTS

[4] = biological target: T4, SEC full length, yeast two-hybrid bait (BD) (Arabidopsis thaliana) (UniProt Q9M8Y0); experiment: as above
T4 sequence: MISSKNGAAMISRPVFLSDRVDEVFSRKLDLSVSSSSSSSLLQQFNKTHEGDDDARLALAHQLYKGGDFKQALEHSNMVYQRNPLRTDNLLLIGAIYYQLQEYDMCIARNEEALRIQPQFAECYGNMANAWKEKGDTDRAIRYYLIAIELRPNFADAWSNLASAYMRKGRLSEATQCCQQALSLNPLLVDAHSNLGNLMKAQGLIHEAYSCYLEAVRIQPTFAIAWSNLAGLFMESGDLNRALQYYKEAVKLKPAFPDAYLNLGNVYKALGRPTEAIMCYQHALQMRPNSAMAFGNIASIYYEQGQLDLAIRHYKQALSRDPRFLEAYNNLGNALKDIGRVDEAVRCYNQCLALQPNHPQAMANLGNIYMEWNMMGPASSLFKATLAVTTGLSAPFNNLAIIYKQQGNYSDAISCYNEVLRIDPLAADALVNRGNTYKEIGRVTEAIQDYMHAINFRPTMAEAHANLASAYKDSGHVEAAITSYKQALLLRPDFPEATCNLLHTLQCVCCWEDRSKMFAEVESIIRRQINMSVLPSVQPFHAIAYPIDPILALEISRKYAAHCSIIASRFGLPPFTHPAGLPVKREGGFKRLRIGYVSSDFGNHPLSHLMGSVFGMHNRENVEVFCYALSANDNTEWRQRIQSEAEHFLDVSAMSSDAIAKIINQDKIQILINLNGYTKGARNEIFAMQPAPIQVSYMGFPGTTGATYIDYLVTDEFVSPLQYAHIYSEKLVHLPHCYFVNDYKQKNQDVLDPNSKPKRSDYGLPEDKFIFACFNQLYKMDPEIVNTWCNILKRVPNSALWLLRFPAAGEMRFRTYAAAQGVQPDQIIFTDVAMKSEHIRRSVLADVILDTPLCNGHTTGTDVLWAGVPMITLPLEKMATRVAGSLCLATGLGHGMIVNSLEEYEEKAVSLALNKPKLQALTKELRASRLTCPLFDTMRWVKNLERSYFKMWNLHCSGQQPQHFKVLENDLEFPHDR

[5] = biological target: T5, HEC1, yeast two-hybrid fusion (Arabidopsis thaliana) (UniProt Q9FHA7); experiment: as above
T5 sequence: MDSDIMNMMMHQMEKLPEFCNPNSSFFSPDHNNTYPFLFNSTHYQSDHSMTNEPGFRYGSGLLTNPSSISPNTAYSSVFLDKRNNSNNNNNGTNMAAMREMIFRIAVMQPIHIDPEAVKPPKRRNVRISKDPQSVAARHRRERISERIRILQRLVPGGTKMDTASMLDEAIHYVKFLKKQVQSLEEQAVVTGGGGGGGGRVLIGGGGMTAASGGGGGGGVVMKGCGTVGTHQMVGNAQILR

binding [1]	binding [2]	binding [3]	binding [4]	binding [5]	Binder
binds	binds	–	–	–	full-length SPT–FLAG (35S::SPT–3xFLAG) (protein, UniProt Q9FUA4 1-373) MISQREEREEKKQRVMGDKKLISSSSSSSVYDTRINHHLHHPPSSSDEISQFLRHIFDRSSPLPSYYSPATTTTTASLIGVHGSGDPHADNSRSLVSHHPPSDSVLMSKRVGDFSEVLIGGGSGSAAACFGFSGGGNNNNVQGNSSGTRVSSSSVGASGNETDEYDCESEEGGEAVVDEAPSSKSGPSSRSSSKRCRAAEVHNLSEKRRRSRINEKMKALQSLIPNSNKTDKASMLDEAIEYLKQLQLQVQMLTMRNGINLHPLCLPGTTLHPLQLSQIRPPEATNDPLLNHTNQFASTSNAPEMINTVASSYALEPSIRSHFGPFPLLTSPVEMSREGGLTHPRLNIGHSNANITGEQALFDGQPDLKDRIT
–	–	binds	binds	no binding	SPT N-terminal domain (residues 1–180), yeast two-hybrid prey (AD) (domain or fragment, UniProt Q9FUA4 1-180) MISQREEREEKKQRVMGDKKLISSSSSSSVYDTRINHHLHHPPSSSDEISQFLRHIFDRSSPLPSYYSPATTTTTASLIGVHGSGDPHADNSRSLVSHHPPSDSVLMSKRVGDFSEVLIGGGSGSAAACFGFSGGGNNNNVQGNSSGTRVSSSSVGASGNETDEYDCESEEGGEAVVDEA
–	–	binds	binds	no binding	SPT fragment containing only the AH domain (residues 1–135), yeast two-hybrid prey (AD) (domain or fragment, UniProt Q9FUA4 1-135) MISQREEREEKKQRVMGDKKLISSSSSSSVYDTRINHHLHHPPSSSDEISQFLRHIFDRSSPLPSYYSPATTTTTASLIGVHGSGDPHADNSRSLVSHHPPSDSVLMSKRVGDFSEVLIGGGSGSAAACFGFSGG

— paper PMC10881398, “O-glycosylation of the transcription factor SPATULA promotes style development in Arabidopsis” (Nature Plants, 2024)
